The list shows a part of the results. The data scatter; read single values as rough.

By UniProt entry, the sequences of proteins in these tests, tags left out. Where a name states a change or a piece, a line headed by the entry shows the natural chain unless it says otherwise.
UniProt P35998: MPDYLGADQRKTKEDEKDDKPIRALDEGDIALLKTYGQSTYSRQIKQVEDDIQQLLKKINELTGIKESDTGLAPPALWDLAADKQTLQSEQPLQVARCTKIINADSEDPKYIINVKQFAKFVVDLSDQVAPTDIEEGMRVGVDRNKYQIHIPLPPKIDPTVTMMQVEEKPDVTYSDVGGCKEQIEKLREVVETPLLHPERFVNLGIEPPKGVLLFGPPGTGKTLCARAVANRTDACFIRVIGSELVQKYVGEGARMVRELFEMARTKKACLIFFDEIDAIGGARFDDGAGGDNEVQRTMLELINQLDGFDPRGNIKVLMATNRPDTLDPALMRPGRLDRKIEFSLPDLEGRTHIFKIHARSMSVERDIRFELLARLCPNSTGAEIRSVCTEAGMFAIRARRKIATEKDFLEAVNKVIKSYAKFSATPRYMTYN

For one assay, the target named is T1, PSMC2 C180 (UniProt P35998).
T1 sequence (whole entry): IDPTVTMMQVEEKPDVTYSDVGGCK
The experiment in a line: log2 mean competition ratio of IA-DTB cysteine labelling (DMSO/compound) (log2 ratio); higher = stronger cysteine engagement by compound. The conditions noted are these: 50 µM; treatment time: 4 h; cell line lysate: HEK293T. How it is done:
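IA-DTB competitive cysteine chemoproteomics in HEK293T RIPA lysate. Lysates were treated with compound 29 or 30 at 50 or 200 µM for 4 h, then IA-DTB (500 µM, 1 h), trypsin-digested, NeutrAvidin-enriched and analysed by diaPASEF. Competition ratio = intensity DMSO / intensity compound (n=4 treated, n=64 DMSO); binding: mean log2 CR ≥ 1 and p ≤ 0.05 plus QC filters. Target is the cysteine site.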
In the case of `O=C(CCl)N[C@@H]1CCCc2ccccc21`, the “log2 mean competition ratio” value is -0.00104.
As for `O=C(CCl)N[C@H]1CCCc2ccccc21`, the “log2 mean competition ratio” value stood at 0.498.

The assay is the same for the next values; noted with them: 200 µM; treatment time: 4 h; cell line lysate: HEK293T.
On to `O=C(CCl)N[C@@H]1CCCc2ccccc21`, for which the “log2 mean competition ratio” value was -0.358.
Consider `O=C(CCl)N[C@H]1CCCc2ccccc21`, for which the “log2 mean competition ratio” value is -0.0491.

Source of the values: the supplement of paper PMC11732987, “Enantioselective OTUD7B fragment discovery through chemoproteomics screening and high-throughput optimisation” (Communications Chemistry, 2025).
